From publication PMC13157976 come the findings set out here.

In this series the target is T1, MBD8 (methyl-CpG-binding domain protein 8) (UniProt Q9LME6).
T1 sequence (looked up, limits assumed): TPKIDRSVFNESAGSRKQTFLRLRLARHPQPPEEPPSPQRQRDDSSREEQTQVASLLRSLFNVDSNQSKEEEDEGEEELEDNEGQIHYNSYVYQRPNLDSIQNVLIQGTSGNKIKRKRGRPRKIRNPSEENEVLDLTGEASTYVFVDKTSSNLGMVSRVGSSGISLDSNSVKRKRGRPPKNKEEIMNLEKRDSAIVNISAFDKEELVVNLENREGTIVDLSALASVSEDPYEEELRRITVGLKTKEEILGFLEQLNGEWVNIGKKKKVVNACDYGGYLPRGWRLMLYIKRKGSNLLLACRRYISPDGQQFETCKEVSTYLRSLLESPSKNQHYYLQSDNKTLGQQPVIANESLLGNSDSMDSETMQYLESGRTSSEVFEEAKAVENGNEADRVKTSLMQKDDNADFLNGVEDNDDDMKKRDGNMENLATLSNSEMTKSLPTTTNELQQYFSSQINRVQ
Kind of series: EMSA. The settings on record: EMSA: 0.2 uM DNA, 0-1.6 uM MBD8, 20 mM Tris-HCl pH 7.5, 150 mM NaCl, 10% glycerol, 2 mM 2-mercaptoethanol, 25 C, 30 min, 8% native PAGE in 0.5x TBE, SYBR Green I, recombinant protein, protein details: N-terminal 6xHis and Halo. (In general: In EMSA bound probe runs differently from free probe, usually more slowly.)

For at least one entry, the source does not settle the construct or the ends of the probe. At least one verdict was read from the data and is not stated in words by the source. Where a protein sequence is shown, tags need not be part of it.

Turning to “TTCTTGCGATTCAACATTCAGCTCTTCGATTCAACATTCAGCTCTTCGTT (double strand) [CG, hemimethylated]”, the binding result (5-methyl-dC on one strand only (sense 7, 27, 47 or antisense 3, 23, 43; strand not given), label: FAM only if methylated sense strand was used, letters put together from the description) is given as “binds”. As to “TTCTTGCCTATTCAACATTCACTGTGCATGTCAACATTCAGCTCGGGCCA (double strand) [CHH, hemimethylated]”, the binding result (5-methyl-dC on one strand only (sense 7, 27, 48 or antisense 4, 25, 45; strand not given), letters put together from the description) is “binds”. Regarding “TTCTTGCGATTCAACATTCAGCTCTTCGATTCAACATTCAGCTCTTCGTT (double strand) [CG, unmethylated (uCG/uCG)]”, the binding result was “binds”. “TTCTTGCCGATTAACATTCAGCTCTTCAGATTCAACATTCACTCTTCTGT (double strand) [CHG, hemimethylated]”: the binding result (5-methyl-dC on one strand only (sense 7, 27, 47 or antisense 2, 22, 42; strand not given), letters put together from the description) is given as “binds”.

In the case of “TTCTTGCCGATTAACATTCAGCTCTTCAGATTCAACATTCACTCTTCTGT (double strand) [CHG, unmethylated (uCHG/uCHG)]”, the binding result is reported as “binds”. “TTCTTGCCTATTCAACATTCACTGTGCATGTCAACATTCAGCTCGGGCCA (double strand) [CHH, fully methylated (mCHH/mCHH)]”: where the note is “5-methyl-dC at sense 7, 27, 48 and antisense 4, 25, 45, letters put together from the description”, the binding result is given as “binds”.

For “TTCTTGCCGATTAACATTCAGCTCTTCAGATTCAACATTCACTCTTCTGT (double strand) [CHG, fully methylated (mCHG/mCHG)]”, the binding result (5-methyl-dC at sense 7, 27, 47 and antisense 2, 22, 42, letters put together from the description) is “binds”. Take “TTCTTGCCTATTCAACATTCACTGTGCATGTCAACATTCAGCTCGGGCCA (double strand) [CHH, unmethylated (uCHH/uCHH)]”: the binding result is on record as “binds”. Regarding “TTCTTGCGATTCAACATTCAGCTCTTCGATTCAACATTCAGCTCTTCGTT (double strand) [CG, fully methylated (mCG/mCG)]”, the binding result (5-methyl-dC at sense 7, 27, 47 and antisense 3, 23, 43, letters put together from the description) is given as “binds”.
